Data reported in article doi:10.1101/526020.
No constants are given. Whether binding was seen depends on the method and setting. In cells and extracts the contact can be indirect. Some binding calls cover weakened binding; strength is not graded here.

By UniProt entry, the sequences of proteins in these tests, tags left out. Where a name states a change or a piece, a line headed by the entry shows the natural chain unless it says otherwise.
UniProt P03915: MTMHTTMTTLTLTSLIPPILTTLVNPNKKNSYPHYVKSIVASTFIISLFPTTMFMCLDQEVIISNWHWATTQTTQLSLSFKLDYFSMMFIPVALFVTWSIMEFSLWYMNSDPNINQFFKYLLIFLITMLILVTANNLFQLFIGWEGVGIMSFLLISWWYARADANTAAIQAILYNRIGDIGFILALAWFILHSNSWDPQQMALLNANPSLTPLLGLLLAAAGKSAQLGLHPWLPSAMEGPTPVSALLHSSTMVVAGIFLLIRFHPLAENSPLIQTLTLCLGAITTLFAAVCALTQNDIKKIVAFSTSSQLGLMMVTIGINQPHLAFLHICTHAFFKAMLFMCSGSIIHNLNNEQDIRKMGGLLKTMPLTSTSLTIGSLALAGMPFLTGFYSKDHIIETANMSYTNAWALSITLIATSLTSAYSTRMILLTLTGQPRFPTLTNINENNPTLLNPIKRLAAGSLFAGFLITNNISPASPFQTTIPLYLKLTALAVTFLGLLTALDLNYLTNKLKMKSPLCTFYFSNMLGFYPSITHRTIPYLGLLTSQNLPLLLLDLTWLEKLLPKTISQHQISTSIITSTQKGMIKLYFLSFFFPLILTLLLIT
UniProt P03891: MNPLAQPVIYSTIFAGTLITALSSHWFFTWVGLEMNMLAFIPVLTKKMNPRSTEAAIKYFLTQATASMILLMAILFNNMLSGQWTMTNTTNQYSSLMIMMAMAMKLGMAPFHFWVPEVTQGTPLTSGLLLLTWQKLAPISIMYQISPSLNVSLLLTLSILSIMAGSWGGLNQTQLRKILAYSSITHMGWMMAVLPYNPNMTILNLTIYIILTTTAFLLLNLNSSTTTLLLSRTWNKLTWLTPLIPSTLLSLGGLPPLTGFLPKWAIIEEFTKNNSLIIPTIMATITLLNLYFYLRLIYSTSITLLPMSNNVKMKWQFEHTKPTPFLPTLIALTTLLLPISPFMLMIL

Biological target: ND5-F1,2 construct (human complex I subunit ND5) (human) (UniProt P03915)
Assay: split reporter

Substance | binding
ND2-I57M in the F3 mDHFR fragment-containing construct (from UniProt P03891 1-347) | binds
ND2-N150D in the F3 mDHFR fragment-containing construct (from UniProt P03891 1-347) | binds
